# Earlier results, collected in patent US20160166543A1 (priority 2014, published 2016).
# At least one read-out could not be matched to a standard name with certainty.
# Details: in vivo; cited from earlier work
smiles,measurement,value
CN(C)CCOC(C)(c1ccccc1)c1ccccn1 (stereo not shown) [Doxylamine succinate],Tmax (time to reach Cmax),2.4 h
